Test results taken from article PMC6923955.
No constants are given. Whether binding was seen depends on the method and setting. In cells and extracts the contact can be indirect. These calls come from enrichment with a bait or labelling near it, and not all partners need be listed.

Protein sequences, listed by entry. Tags and fused reporters are not part of them.
UniProt P04198: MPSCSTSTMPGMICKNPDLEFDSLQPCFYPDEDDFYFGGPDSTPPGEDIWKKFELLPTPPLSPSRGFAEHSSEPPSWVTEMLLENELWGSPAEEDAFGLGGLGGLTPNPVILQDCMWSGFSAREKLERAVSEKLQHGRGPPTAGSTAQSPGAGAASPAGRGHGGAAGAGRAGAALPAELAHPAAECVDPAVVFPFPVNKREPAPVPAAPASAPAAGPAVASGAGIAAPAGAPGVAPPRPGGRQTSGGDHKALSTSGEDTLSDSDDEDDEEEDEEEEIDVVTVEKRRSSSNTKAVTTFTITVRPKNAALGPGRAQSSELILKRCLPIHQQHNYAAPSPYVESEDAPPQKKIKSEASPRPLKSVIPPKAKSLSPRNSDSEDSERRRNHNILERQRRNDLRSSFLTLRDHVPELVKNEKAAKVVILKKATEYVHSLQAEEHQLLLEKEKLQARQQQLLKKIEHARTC
UniProt Q99496: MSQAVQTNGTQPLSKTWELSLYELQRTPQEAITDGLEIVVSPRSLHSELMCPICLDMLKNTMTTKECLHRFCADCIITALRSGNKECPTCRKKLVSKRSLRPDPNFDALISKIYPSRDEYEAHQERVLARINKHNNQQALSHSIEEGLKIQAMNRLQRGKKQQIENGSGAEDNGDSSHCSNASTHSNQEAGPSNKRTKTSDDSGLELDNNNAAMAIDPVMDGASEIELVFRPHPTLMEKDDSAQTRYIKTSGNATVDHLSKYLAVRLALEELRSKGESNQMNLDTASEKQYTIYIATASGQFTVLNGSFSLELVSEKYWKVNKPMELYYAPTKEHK
UniProt Q06587: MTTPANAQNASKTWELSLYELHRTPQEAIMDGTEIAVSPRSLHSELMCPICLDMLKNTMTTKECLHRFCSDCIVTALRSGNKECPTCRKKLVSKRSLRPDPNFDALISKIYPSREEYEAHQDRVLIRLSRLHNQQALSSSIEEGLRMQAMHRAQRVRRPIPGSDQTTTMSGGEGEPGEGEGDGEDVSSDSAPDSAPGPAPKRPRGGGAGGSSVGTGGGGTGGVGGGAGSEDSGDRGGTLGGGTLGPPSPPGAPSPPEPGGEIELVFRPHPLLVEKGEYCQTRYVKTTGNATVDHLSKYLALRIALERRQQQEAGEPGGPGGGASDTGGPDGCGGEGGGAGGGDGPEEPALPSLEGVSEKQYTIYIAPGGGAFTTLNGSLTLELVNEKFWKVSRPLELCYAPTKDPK
UniProt P35226: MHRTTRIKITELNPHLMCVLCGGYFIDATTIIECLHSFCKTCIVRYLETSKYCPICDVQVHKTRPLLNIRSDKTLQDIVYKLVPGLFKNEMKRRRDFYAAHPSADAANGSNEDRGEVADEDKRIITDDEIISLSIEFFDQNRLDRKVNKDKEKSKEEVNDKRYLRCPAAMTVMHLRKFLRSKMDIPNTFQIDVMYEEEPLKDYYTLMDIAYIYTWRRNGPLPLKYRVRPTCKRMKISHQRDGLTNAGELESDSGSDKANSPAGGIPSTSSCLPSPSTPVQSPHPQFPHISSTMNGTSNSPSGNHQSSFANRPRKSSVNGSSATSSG

Target: MYCN Proto-Oncogene, BHLH Transcription Factor (human (endogenous in BE(2)-C)) (UniProt P04198)
Experiment: affinity purification with mass spectrometry; BE(2)-C cell lysates immunoprecipitated with an antibody against MYCN on Protein A/G magnetic beads, overnight at 4 °C; lysis buffer 1% NP40, 150 nM NaCl (so in the source), 50 mM Tris-Cl pH 7.2, 1 mM EDTA; eluted with 50 mM glycine pH 2.8, analysed by MS

Substance | binding
RING1B (from UniProt Q99496 1-336) | binds
RING1A (from UniProt Q06587 1-406) | binds
BMI1 (from UniProt P35226 1-326) | binds
